Reference: the supplement of paper PMC10849652
Some of the results follow.

Protein sequences, listed by entry. Tags and fused reporters are not part of them. Lines headed by an entry give the natural chain unless they say otherwise; changes in a name come on top.
UniProt Q9Y305: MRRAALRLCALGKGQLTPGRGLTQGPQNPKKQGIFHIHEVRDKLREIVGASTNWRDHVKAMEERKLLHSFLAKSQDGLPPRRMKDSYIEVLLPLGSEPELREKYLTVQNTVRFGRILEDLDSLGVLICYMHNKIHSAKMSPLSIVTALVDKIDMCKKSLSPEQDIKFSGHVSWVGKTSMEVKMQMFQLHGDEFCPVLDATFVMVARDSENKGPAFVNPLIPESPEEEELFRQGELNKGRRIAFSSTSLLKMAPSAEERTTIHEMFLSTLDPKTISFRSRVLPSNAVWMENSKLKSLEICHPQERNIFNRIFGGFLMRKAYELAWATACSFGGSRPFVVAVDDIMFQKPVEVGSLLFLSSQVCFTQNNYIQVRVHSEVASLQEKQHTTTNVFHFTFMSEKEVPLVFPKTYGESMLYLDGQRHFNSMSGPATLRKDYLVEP
UniProt P52895: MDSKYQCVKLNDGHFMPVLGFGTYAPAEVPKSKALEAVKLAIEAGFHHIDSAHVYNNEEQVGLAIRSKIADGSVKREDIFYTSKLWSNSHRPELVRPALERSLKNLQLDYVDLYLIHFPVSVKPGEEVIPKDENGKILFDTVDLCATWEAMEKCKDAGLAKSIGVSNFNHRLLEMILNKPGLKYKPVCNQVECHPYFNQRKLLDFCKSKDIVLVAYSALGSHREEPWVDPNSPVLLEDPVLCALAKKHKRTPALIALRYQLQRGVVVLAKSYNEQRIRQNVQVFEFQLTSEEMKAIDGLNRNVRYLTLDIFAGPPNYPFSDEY
UniProt Q02952: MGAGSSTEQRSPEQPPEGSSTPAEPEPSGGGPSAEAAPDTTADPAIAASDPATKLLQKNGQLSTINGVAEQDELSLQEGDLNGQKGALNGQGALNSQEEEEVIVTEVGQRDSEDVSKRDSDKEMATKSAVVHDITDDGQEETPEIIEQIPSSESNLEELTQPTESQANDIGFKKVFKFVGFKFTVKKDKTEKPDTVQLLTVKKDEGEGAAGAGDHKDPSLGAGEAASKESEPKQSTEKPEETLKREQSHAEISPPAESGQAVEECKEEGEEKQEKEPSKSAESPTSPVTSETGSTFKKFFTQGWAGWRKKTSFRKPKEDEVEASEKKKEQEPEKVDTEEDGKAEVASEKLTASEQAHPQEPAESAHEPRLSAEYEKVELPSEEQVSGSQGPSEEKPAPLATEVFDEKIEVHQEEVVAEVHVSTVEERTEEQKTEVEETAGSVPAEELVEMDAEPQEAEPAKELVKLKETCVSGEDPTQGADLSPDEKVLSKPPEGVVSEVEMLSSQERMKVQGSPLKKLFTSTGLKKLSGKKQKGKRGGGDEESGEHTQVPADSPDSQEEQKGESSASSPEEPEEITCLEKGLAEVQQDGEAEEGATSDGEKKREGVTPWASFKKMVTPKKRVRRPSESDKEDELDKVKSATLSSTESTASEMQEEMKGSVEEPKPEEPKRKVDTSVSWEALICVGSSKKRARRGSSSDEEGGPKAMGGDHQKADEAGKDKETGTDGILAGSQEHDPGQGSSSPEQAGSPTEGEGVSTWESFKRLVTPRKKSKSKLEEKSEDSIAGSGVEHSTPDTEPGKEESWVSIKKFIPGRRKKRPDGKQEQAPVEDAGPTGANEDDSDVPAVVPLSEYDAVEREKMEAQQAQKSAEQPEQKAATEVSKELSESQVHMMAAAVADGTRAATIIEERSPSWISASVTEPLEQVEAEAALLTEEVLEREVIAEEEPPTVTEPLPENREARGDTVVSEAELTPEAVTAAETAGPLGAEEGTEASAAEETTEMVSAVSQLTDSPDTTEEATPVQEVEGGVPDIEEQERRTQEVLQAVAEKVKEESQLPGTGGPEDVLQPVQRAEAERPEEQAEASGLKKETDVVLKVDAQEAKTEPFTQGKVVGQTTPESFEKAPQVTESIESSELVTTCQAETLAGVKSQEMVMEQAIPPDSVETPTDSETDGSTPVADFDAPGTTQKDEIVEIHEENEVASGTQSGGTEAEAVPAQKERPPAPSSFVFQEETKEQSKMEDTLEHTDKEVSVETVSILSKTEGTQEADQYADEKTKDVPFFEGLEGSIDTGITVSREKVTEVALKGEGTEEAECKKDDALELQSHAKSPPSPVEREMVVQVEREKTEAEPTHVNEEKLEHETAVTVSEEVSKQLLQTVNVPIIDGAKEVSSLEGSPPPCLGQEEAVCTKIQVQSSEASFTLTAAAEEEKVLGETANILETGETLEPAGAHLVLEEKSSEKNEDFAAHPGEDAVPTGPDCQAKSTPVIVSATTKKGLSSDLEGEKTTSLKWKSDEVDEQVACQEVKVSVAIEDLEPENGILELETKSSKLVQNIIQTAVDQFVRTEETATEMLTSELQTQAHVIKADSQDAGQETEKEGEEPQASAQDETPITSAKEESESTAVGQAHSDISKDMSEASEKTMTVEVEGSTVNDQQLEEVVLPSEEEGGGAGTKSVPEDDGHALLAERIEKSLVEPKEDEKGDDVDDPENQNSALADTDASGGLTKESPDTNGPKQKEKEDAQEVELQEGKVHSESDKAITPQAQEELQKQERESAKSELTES
UniProt Q96EY9: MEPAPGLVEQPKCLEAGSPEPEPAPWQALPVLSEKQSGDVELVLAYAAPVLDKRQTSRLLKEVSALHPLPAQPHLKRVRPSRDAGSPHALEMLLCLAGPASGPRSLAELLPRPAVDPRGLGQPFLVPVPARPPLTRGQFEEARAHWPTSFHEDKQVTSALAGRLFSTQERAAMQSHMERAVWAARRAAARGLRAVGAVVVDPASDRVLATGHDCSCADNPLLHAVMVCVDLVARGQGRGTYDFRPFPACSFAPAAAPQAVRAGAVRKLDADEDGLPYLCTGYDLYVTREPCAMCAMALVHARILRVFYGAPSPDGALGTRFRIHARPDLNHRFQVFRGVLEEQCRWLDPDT
UniProt Q92667: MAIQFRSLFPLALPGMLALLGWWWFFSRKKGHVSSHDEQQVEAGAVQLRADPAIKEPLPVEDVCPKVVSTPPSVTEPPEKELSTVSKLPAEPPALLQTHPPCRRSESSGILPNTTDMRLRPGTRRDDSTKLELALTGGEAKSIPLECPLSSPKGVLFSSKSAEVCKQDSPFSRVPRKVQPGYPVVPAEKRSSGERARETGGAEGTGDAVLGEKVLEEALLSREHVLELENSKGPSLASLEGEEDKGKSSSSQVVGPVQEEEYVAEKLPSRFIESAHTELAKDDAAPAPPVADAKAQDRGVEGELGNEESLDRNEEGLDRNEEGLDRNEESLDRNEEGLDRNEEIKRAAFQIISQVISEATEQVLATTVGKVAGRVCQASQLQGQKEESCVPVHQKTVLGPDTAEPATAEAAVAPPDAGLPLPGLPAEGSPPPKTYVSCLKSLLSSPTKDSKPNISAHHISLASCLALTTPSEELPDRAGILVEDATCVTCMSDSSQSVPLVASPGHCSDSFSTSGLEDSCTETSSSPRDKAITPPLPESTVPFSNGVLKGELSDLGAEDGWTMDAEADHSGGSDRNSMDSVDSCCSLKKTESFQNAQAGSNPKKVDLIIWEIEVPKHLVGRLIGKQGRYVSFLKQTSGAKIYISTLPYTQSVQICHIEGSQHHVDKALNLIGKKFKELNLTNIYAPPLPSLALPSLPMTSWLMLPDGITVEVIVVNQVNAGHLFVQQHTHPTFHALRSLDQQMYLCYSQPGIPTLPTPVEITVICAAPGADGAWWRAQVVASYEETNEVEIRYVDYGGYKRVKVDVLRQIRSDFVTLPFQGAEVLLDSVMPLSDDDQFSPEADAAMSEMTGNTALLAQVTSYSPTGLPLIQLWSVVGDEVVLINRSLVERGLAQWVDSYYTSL
UniProt P27144: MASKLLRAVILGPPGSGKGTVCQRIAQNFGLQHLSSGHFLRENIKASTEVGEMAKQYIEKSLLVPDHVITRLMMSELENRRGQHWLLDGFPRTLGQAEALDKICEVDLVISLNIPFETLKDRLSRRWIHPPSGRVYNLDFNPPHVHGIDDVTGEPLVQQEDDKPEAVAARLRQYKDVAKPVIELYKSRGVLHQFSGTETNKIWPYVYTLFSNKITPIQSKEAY
UniProt P42330: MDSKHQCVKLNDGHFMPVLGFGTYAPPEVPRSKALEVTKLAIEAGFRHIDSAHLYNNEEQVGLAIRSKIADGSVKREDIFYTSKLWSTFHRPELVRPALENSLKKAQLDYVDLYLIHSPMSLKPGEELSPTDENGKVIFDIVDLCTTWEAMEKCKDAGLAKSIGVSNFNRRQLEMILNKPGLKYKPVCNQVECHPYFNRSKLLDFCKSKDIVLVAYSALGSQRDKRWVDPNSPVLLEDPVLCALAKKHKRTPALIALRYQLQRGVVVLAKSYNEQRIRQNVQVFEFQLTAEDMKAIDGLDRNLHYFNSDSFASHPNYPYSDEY
UniProt Q15067: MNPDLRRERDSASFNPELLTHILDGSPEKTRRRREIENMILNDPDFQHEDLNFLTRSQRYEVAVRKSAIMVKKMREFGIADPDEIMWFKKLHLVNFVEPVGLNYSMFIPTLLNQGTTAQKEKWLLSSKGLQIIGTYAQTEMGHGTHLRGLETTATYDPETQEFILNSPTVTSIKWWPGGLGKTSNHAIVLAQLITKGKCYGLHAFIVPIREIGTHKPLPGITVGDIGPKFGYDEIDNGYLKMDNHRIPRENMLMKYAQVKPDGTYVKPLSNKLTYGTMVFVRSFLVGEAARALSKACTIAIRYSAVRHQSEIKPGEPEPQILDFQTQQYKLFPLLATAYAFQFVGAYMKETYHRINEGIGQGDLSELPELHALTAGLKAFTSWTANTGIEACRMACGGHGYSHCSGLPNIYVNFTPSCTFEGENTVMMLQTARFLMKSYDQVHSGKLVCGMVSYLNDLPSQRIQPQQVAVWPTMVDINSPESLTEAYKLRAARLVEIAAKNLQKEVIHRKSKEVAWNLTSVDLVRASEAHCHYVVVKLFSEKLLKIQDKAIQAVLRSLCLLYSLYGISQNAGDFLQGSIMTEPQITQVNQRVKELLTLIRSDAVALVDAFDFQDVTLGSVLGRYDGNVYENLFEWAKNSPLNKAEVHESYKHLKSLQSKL
UniProt P24666: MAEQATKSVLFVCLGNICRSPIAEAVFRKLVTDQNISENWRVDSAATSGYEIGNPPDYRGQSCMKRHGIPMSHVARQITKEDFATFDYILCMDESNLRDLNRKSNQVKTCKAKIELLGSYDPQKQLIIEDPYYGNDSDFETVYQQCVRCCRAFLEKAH
UniProt O95433, whole entry, looked up: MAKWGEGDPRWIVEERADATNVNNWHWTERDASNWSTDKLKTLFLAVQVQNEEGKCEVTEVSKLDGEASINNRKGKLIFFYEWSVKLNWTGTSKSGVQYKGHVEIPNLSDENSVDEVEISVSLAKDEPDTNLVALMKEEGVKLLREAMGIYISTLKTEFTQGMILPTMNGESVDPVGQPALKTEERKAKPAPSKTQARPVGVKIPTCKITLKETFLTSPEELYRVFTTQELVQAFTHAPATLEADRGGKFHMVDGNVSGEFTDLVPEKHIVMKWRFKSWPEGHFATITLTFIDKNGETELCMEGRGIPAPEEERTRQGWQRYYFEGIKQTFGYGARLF
UniProt Q9NR19, whole entry, looked up: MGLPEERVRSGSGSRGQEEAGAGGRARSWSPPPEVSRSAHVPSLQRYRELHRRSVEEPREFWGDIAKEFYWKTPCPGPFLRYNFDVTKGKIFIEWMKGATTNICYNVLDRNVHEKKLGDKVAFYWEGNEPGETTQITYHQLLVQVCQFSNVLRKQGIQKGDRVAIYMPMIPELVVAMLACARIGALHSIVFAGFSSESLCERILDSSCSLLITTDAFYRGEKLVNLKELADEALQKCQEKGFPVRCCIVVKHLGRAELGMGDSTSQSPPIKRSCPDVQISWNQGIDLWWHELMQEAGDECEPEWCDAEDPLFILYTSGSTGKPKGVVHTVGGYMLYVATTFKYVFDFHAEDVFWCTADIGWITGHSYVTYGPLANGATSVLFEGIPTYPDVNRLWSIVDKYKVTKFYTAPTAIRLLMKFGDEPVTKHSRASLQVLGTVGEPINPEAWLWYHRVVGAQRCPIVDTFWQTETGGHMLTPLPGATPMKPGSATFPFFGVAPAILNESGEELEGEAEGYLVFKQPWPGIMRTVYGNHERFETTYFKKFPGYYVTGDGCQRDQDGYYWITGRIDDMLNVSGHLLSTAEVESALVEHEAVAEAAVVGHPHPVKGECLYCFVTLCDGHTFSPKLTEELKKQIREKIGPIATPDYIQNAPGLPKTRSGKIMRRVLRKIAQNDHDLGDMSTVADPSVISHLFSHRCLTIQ
UniProt Q9NRZ7: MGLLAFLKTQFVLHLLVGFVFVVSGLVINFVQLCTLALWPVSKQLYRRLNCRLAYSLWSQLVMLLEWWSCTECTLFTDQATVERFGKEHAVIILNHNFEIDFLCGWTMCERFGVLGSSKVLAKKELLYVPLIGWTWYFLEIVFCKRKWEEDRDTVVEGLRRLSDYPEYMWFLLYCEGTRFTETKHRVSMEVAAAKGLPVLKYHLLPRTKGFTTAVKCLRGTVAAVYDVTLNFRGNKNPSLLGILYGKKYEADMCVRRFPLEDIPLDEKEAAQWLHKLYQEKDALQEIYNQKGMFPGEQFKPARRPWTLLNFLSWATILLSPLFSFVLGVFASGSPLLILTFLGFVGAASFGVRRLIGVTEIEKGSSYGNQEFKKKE

How the values were obtained:
Assay in all cases: log2 fold change, soluble protein after heating vs DMSO (PISA); higher = thermal stabilisation; K562 lysate, 10 uM; active = over 0.2 and 3.5 SD of the protein, either way, in both replicates (recomputed)
vemurafenib = compound: CCCS(=O)(=O)Nc1ccc(F)c(C(=O)c2c[nH]c3ncc(-c4ccc(Cl)cc4)cc23)c1F [vemurafenib]
In short: (§1)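 Quantification was by TMTpro 16plex LC-MS/MS with equalised channel sums, applied to the supernatant after 21,000xg for 90 min. Samples were crude K562 extract at 1 mg/mL protein in PBS pH 7.4 with 1 mM MgCl2, treated with 10 μM compound for 30 min, heated for 3 min across 48°C-58°C, pooled and brought to 0.5% NP-40 at 4°C. Values are log-two fold changes in thermal stability relative to solvent controls, from duplicates.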

[1] = compound: CCCS(=O)(=O)Nc1ccc(F)c(C(=O)c2c[nH]c3ncc(Cl)cc23)c1F
In short: as §1

barasertib = compound: CCN(CCCOc1ccc2c(Nc3cc(CC(=O)Nc4cccc(F)c4)[nH]n3)ncnc2c1)CCOP(=O)(O)O [barasertib]
In short: as §1

[2] = compound: CC[C@@H]1C(=O)N(C)c2cnc(Nc3ccc(C(=O)NC4CCN(C)CC4)cc3OC)nc2N1C1CCCC1
In short: as §1

volasertib = compound: CC[C@@H]1C(=O)N(C)c2cnc(Nc3ccc(C(=O)N[C@H]4CC[C@H](N5CCN(CC6CC6)CC5)CC4)cc3OC)nc2N1C(C)C [volasertib]
In short: as §1

[3] = compound: CCn1c(C(=O)N(C2CC2)C2CC2)cc2c3c(ncn3C)c(Nc3cc(C)n(C)n3)nc21
In short: as §1

[4] = compound: CCn1cc(-c2ccnc3[nH]c(-c4cccc(CN(C)C)c4)cc23)c(-c2ccc(NC(=O)N(C)C)cc2)n1
In short: as §1

[5] = compound: CN1CCC(CNc2ccc3ncc(-c4cccc(OC(F)(F)F)c4)n3n2)CC1
In short: as §1

saracatinib = compound: CN1CCN(CCOc2cc(OC3CCOCC3)c3c(Nc4c(Cl)ccc5c4OCO5)ncnc3c2)CC1 [saracatinib]
In short: as §1

sotrastaurin = compound: CN1CCN(c2nc(C3=C(c4c[nH]c5ccccc45)C(=O)NC3=O)c3ccccc3n2)CC1 [sotrastaurin]
In short: as §1

| Target | log2 fold change (vemurafenib) | log2 fold change [1] | log2 fold change (barasertib) | log2 fold change [2] | log2 fold change (volasertib) | log2 fold change [3] | log2 fold change [4] | log2 fold change [5] | log2 fold change (saracatinib) | log2 fold change (sotrastaurin) |
| --- | --- | --- | --- | --- | --- | --- | --- | --- | --- | --- |
| ADAT2 (UniProt Q7Z6V5) | inactive: -0.07 | inactive: 0.04 | inactive: -0.035 | inactive: -0.035 | inactive: -0.013 | inactive: -0.03 | inactive: 0.007 | inactive: 0.037 | inactive: -0.026 | inactive: -0.014 |
| ACOT9 isoform 4 (UniProt Q9Y305) | inactive: 0.01 | inactive: -0.005 | inactive: 0.015 | inactive: -0.066 | inactive: -0.1 | inactive: 0.007 | inactive: -0.068 | inactive: -0.04 | inactive: 0.113 | inactive: 0.02 |
| AGTRAP (UniProt Q6RW13) | inactive: 0.038 | inactive: 0.039 | inactive: 0.086 | inactive: -0.001 | inactive: 0.007 | inactive: -0.049 | inactive: -0.205 | inactive: 0.092 | inactive: 0.06 | inactive: 0.043 |
| AKR1C2 (UniProt P52895) | inactive: 0.001 | inactive: 0.018 | inactive: -0.008 | inactive: 0.008 | inactive: -0.018 | inactive: -0.043 | active: -0.369 | inactive: 0.148 | inactive: 0.062 | inactive: 0.006 |
| AK3 (UniProt Q9UIJ7) | inactive: -0.015 | inactive: -0.015 | inactive: -0.018 | inactive: -0.031 | inactive: 0.022 | inactive: 0.003 | inactive: 0.054 | inactive: -0.016 | inactive: -0.018 | inactive: -0.025 |
| ACTBL2 (UniProt Q562R1) | inactive: -0.097 | inactive: 0.089 | inactive: -0.117 | inactive: 0.098 | inactive: -0.166 | inactive: 0.105 | inactive: 0.417 | inactive: -0.023 | inactive: -0.108 | inactive: 0.049 |
| ACP2 (UniProt P11117) | inactive: -0.022 | inactive: 0.013 | inactive: 0.038 | inactive: -0.01 | inactive: 0.002 | inactive: 0.067 | inactive: 0.008 | inactive: 0.065 | inactive: -0.07 | inactive: -0.024 |
| AKAP9 (UniProt Q99996) | inactive: 0.042 | inactive: 0.008 | inactive: 0.029 | inactive: 0.015 | inactive: -0.048 | inactive: 0.02 | inactive: -0.022 | inactive: -0.016 | inactive: 0.015 | inactive: -0.03 |
| AKAP12 (UniProt Q02952) | inactive: 0.011 | inactive: 0.007 | inactive: -0.057 | inactive: 0.003 | inactive: -0.016 | inactive: 0.056 | inactive: 0.15 | inactive: 0.04 | inactive: 0.192 | inactive: 0.056 |
| AKAP11 (UniProt Q9UKA4) | inactive: -0.272 | inactive: -0.029 | inactive: 0.082 | inactive: 0.051 | inactive: 0.038 | inactive: -0.055 | inactive: 0.044 | inactive: -0.024 | inactive: 0.028 | inactive: -0.103 |
| AGK (UniProt Q53H12) | inactive: 0.021 | inactive: 0.01 | inactive: -0.018 | inactive: -0.014 | inactive: 0.019 | inactive: -0.002 | inactive: 0.091 | inactive: -0.133 | inactive: -0.006 | inactive: -0.029 |
| ACTL8 (UniProt Q9H568) | inactive: 0.033 | inactive: 0.004 | inactive: -0.052 | inactive: 0.101 | inactive: -0.004 | inactive: -0.075 | inactive: -0.034 | inactive: 0.031 | inactive: 0.031 | inactive: -0.026 |
| ADAL (UniProt Q6DHV7) | inactive: 0.014 | inactive: 0.031 | inactive: -0.007 | inactive: 0.028 | inactive: 0.019 | inactive: -0.011 | inactive: 0.108 | inactive: -0.042 | inactive: 0.008 | inactive: -0.019 |
| ADAT3 (UniProt Q96EY9) | inactive: 0.018 | inactive: -0.029 | inactive: -0.01 | inactive: 0.083 | inactive: 0.007 | inactive: 0.008 | inactive: 0.108 | inactive: 0.029 | inactive: 0.002 | inactive: 0.008 |
| AIDA (UniProt Q96BJ3) | inactive: 0.097 | inactive: 0.018 | inactive: -0.016 | inactive: -0.048 | inactive: 0.011 | inactive: -0.026 | inactive: 0.092 | inactive: 0.014 | inactive: -0.024 | inactive: -0.013 |
| AKAP1 (UniProt Q92667) | inactive: 0.108 | inactive: 0 | inactive: 0.017 | inactive: -0.091 | inactive: -0.048 | inactive: 0.035 | inactive: -0.024 | inactive: -0.042 | inactive: 0.02 | inactive: -0.03 |
| AK4 (UniProt P27144) | inactive: -0.068 | inactive: 0.018 | inactive: 0.11 | inactive: -0.057 | inactive: -0.024 | inactive: 0.023 | inactive: -0.036 | inactive: -0.002 | inactive: -0.016 | inactive: 0.05 |
| AKR1C3 (UniProt P42330) | inactive: 0.01 | inactive: 0.023 | inactive: -0.033 | inactive: 0.091 | inactive: -0.027 | inactive: -0.05 | inactive: -0.034 | inactive: 0.059 | inactive: 0.187 | inactive: 0.044 |
| ACOX1 isoform 2 (UniProt Q15067) | inactive: 0.017 | inactive: 0.003 | inactive: -0.029 | inactive: 0.015 | inactive: 0.053 | inactive: -0.026 | inactive: -0.038 | inactive: 0.1 | inactive: -0.014 | inactive: 0.004 |
| AFF1 isoform 2 (UniProt P51825) | inactive: -0.059 | inactive: 0.007 | inactive: 0.033 | inactive: 0.068 | inactive: -0.043 | inactive: -0.023 | inactive: -0.307 | inactive: 0.125 | inactive: -0.015 | inactive: 0.029 |
| AFF4 (UniProt Q9UHB7) | inactive: 0.157 | inactive: -0.012 | inactive: -0.072 | inactive: 0.001 | inactive: -0.019 | inactive: 0.023 | inactive: -0.133 | inactive: -0.04 | inactive: -0.009 | inactive: 0.002 |
| AKR7A2 (UniProt O43488) | inactive: -0.024 | inactive: -0.011 | inactive: 0 | inactive: 0.034 | inactive: -0.014 | inactive: 0.02 | inactive: -0.019 | inactive: -0.026 | inactive: -0.027 | inactive: 0.026 |
| ACP1 (UniProt P24666) | inactive: -0.047 | inactive: -0.051 | inactive: -0.045 | inactive: -0.042 | inactive: -0.077 | inactive: 0.016 | inactive: -0.044 | inactive: 0.061 | inactive: -0.038 | inactive: 0.084 |
| AHSA1 (UniProt O95433) | inactive: -0.005 | inactive: 0.008 | inactive: -0.028 | inactive: -0.009 | inactive: -0.005 | inactive: -0.021 | inactive: 0.005 | inactive: 0.035 | inactive: -0.009 | inactive: -0.001 |
| ACSS2 isoform 2 (UniProt Q9NR19) | inactive: -0.072 | inactive: -0.007 | inactive: -0.025 | inactive: -0.108 | inactive: -0.029 | inactive: 0.014 | inactive: -0.019 | inactive: -0.001 | inactive: 0.018 | inactive: 0.014 |
| AGPAT3 isoform 3 (UniProt Q9NRZ7) | inactive: 0.058 | inactive: 0.019 | inactive: 0.032 | inactive: -0.139 | inactive: -0.035 | inactive: 0.016 | inactive: -0.089 | inactive: -0.039 | inactive: -0.004 | inactive: 0.037 |
| AKNA (UniProt Q7Z591) | inactive: -0.176 | inactive: -0.122 | inactive: 0.07 | inactive: -0.134 | inactive: -0.149 | inactive: 0.01 | inactive: 0.035 | inactive: -0.312 | inactive: -0.004 | inactive: -0.037 |

Whole records as entered above. Values in the order: log2 fold change (vemurafenib)	log2 fold change [1]	log2 fold change (barasertib)	log2 fold change [2]	log2 fold change (volasertib)	log2 fold change [3]	log2 fold change [4]	log2 fold change [5]	log2 fold change (saracatinib)	log2 fold change (sotrastaurin)
ADAL (UniProt Q6DHV7) is entered as inactive: 0.014	inactive: 0.031	inactive: -0.007	inactive: 0.028	inactive: 0.019	inactive: -0.011	inactive: 0.108	inactive: -0.042	inactive: 0.008	inactive: -0.019
AKR7A2 (UniProt O43488) is entered as inactive: -0.024	inactive: -0.011	inactive: 0	inactive: 0.034	inactive: -0.014	inactive: 0.02	inactive: -0.019	inactive: -0.026	inactive: -0.027	inactive: 0.026
